Hit rate of the full screen: of about 320,000 compounds, about 22,000 (6.9%) were called active. This list was built around the results that the source calls inconclusive (neither active nor inactive); the mix of calls is not that of the screen. Calls follow the shape of the dose curve; as a rule, active = well fitted inhibition curve with a large enough effect; inconclusive = small, poorly fitted or top-dose-only effect, or another doubt; inactive = no such curve, though single readings can be large or run the other way. Where the call is inconclusive, the potency comes from a doubtful curve fit.
test: Primary qHTS for delayed death inhibitors of the malarial parasite plastid, 96 hour incubation; settings: P. falciparum luciferase reporter growth; series mostly up to 28.7 µM; activity change, negative = inhibition: at the top concentration
Method in brief: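 Readout is luminescence from an integrated firefly luciferase in P. falciparum. Red cells, 2% hematocrit and 0.05% parasitemia final, were cultured with compound through two parasite generations (96 hours) at 37 C, 5% CO2.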
% is scaled to controls: 0 for no effect and ±100 for the full control effect; potency is read from the fitted curve at half-maximal effect.

Row | SMILES | Potency | activity change, negative = inhibition
1 | COc1ccc(C2CC(c3ccccc3)=NN2C(=O)COC(=O)c2nc3nc(C)cc(C)n3n2)cc1 (configuration not stated) | inconclusive: 9.28 µM [inhibitor, partial curve] | –
2 | COc1ccc(C)cc1NCC(=O)Nc1ccc(C(C)(C)C)cc1 | active: 9.28 µM | –
3 | COc1ccc(Cl)cc1NC(=O)CN(C)C1CCCCC1 | inconclusive: 13.1 µM [inhibitor, partial curve] | –
4 | COC(=O)/C=C/CC(C)OS(N)(=O)=O (configuration not stated) | – | inactive: -26.6%
5 | Cc1c(NC(=S)N/N=C/c2ccc(N(C)C)cc2)c(=O)n(-c2ccccc2)n1C | – | inactive: -1.88%
6 | C[C@@H]1NC(=O)[C@H](CCC(=O)O)NC(=O)c2cc([N+](=O)[O-])cc(F)c2NCCC[C@@H](C(N)=O)NC1=O | – | inactive: -1.78%
7 | Cc1cc(C)c2nc(N)sc2c1 | inconclusive: 11.7 µM [inhibitor, partial curve, poor fit] | –
8 | O=C(O)CC(NC(=O)Cc1ccccc1)c1ccccc1 (configuration not stated) | inconclusive: 11.7 µM [inhibitor, single point] | –
9 | COc1ccc(N(CC(=O)NC2CCCCCCC2)S(=O)(=O)c2c(C)nn(C)c2C)cc1 | inconclusive: 1.31 µM [inhibitor, partial curve] | –
10 | CCOC(=O)c1sc(NC(=O)CN2CCN(c3ccccc3)CC2)nc1C | inconclusive: 18.5 µM [inhibitor, single point] | –
11 | COc1ccc(/C=C2\SC(=O)N(CC(=O)NNC(=O)c3ccccc3O)C2=O)cc1 | active: 3.29 µM | –
12 | O=C(NC1CCCCC1)C(=S)N1CCCC1 | – | inactive: 33.4%
13 | Cc1ccc(-n2c(C)c3c(C)nnc(C)c3c2C)cc1N | – | inactive: -5.48%
14 | O=C(CC(C(=O)O)c1ccccc1)Nc1ccccc1 (configuration not stated) | inconclusive: 2.94 µM [inhibitor, full curve, poor fit] | –
15 | Fc1ccc2nc(Nc3nc4c(F)cccc4s3)sc2c1 | inconclusive: 3.7 µM [inhibitor, single point] | –
16 | CSc1nccc(N/N=C/c2ccccc2)n1 | – | inactive: 341%
17 | N#Cc1nnn(Cc2ccccc2)c1N | inconclusive: 9.28 µM [inhibitor, single point] | –
18 | COc1cccc(/C=C2\Oc3cc(OCC(=O)N4CCCC4)ccc3C2=O)c1OC | active: 10.4 µM | –
19 | CCCCCCCOc1ccc(-c2ccc(C#N)cn2)cc1 | active: 6.57 µM | –
20 | O=C1NC(=O)C(CCc2ccncc2)(Cc2cccc(Cl)c2Cl)C(=O)N1c1ccc(Br)cc1 (configuration not stated) | active: 5.22 µM | –
21 | CCc1cc2c(cc3c(=O)n(CC(=O)NCCCN4CCCCCC4)nc(CC)n32)s1 | inconclusive: 18.5 µM [inhibitor, single point] | –
22 | COc1cc(CNc2ccc(C)c(C)c2)cc(OC)c1OC | inconclusive: 18.5 µM [inhibitor, single point] | –

Among those listed so far, these have a cyano group:
Row | SMILES | Potency | activity change, negative = inhibition
17 | N#Cc1nnn(Cc2ccccc2)c1N | inconclusive: 9.28 µM [inhibitor, single point] | –
19 | CCCCCCCOc1ccc(-c2ccc(C#N)cn2)cc1 | active: 6.57 µM | –
